Test results from the supplement of paper PMC10849652.
The list shows a part of the results.

Chains of the proteins cited; added tags and fusions are not shown. Lines headed by an entry give the natural chain unless they say otherwise; changes in a name come on top.
UniProt Q96S44: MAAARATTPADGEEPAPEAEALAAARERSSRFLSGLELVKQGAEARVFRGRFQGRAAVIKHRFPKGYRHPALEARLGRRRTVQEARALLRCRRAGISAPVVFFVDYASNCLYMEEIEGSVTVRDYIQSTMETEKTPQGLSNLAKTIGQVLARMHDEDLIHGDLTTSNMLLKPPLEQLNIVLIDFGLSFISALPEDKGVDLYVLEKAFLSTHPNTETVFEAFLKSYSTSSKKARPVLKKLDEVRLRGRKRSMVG
UniProt Q9BRZ2: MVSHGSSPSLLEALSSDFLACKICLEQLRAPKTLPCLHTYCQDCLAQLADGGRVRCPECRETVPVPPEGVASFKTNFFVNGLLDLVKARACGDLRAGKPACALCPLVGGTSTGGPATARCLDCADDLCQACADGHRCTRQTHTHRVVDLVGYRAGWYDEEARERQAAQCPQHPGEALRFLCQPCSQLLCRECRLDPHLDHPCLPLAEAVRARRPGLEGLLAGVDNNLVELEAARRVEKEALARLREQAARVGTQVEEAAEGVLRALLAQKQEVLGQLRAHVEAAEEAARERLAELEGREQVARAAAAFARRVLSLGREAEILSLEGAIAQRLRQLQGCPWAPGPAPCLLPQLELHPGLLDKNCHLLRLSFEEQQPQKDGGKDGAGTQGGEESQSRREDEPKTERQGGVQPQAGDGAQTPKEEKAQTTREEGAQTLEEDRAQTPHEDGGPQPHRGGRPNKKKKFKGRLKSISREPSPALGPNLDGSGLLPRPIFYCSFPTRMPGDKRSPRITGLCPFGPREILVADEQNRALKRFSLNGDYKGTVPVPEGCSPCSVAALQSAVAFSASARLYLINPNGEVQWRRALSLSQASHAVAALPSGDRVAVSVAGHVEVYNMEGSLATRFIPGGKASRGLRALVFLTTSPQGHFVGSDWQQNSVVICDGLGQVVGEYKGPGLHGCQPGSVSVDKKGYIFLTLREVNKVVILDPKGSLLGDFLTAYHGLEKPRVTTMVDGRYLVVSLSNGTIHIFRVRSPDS
UniProt P29144: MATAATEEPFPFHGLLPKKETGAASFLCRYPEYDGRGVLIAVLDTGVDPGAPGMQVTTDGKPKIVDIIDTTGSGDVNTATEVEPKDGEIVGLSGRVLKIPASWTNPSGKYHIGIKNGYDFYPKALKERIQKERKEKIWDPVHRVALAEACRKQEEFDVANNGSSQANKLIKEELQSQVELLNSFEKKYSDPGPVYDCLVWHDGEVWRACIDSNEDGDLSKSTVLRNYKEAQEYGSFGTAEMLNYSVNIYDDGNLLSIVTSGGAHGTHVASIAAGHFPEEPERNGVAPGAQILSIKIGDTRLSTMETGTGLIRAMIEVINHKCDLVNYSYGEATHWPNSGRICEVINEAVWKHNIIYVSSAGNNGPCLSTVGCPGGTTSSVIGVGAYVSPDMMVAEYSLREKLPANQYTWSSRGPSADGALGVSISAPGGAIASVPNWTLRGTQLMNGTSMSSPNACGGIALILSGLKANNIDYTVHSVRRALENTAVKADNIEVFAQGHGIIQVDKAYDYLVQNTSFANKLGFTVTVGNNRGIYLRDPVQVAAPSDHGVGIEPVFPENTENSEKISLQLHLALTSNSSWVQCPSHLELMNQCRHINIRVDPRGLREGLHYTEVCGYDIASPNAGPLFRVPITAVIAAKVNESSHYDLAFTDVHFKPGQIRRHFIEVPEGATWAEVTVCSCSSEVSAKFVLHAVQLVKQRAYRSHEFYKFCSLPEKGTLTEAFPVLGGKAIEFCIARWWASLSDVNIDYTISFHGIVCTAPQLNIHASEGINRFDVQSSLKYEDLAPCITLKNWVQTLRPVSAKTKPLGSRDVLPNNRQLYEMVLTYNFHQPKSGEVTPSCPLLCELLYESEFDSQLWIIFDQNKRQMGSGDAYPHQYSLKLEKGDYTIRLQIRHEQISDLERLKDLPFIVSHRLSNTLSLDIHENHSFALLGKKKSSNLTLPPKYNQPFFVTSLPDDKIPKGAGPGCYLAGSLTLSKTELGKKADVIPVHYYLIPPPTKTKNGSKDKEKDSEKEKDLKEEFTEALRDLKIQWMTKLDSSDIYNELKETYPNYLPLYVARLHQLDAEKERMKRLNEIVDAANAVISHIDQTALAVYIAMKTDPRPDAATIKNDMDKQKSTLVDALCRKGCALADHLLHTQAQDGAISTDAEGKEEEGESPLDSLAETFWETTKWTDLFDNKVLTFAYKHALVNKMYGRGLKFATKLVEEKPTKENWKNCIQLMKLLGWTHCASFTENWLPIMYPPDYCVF
UniProt O75157: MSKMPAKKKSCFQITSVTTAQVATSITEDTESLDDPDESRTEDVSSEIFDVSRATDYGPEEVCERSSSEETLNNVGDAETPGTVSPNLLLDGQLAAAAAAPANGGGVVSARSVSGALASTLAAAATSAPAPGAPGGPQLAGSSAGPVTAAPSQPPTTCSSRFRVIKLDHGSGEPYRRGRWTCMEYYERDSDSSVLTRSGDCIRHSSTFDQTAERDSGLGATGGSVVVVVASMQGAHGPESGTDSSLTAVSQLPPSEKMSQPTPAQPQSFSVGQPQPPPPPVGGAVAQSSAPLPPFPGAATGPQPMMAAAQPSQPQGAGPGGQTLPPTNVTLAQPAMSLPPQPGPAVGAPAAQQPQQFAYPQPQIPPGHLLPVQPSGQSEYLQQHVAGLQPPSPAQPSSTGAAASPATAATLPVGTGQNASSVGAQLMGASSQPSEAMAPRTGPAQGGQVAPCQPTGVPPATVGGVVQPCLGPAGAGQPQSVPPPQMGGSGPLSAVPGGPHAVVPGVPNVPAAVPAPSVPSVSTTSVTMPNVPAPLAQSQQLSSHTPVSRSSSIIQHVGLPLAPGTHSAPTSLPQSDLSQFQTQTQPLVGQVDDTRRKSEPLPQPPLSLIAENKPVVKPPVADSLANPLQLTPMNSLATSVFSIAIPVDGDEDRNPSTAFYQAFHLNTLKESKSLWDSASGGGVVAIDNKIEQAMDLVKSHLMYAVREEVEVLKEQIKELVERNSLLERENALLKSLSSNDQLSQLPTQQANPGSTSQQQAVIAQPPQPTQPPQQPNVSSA
UniProt Q9NS69: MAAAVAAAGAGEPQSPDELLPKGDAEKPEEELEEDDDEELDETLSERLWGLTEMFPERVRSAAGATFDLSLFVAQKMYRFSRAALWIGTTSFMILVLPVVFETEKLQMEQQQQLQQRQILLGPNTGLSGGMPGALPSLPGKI
UniProt P06753, whole entry, looked up: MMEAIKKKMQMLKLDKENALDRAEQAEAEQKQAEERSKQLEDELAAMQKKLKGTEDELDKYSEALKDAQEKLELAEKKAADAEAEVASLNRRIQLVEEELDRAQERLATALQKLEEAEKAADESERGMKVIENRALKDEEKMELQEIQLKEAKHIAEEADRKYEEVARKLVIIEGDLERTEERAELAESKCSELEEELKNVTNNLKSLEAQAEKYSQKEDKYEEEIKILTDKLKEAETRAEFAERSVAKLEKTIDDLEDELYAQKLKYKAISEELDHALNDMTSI
UniProt Q8WVT3: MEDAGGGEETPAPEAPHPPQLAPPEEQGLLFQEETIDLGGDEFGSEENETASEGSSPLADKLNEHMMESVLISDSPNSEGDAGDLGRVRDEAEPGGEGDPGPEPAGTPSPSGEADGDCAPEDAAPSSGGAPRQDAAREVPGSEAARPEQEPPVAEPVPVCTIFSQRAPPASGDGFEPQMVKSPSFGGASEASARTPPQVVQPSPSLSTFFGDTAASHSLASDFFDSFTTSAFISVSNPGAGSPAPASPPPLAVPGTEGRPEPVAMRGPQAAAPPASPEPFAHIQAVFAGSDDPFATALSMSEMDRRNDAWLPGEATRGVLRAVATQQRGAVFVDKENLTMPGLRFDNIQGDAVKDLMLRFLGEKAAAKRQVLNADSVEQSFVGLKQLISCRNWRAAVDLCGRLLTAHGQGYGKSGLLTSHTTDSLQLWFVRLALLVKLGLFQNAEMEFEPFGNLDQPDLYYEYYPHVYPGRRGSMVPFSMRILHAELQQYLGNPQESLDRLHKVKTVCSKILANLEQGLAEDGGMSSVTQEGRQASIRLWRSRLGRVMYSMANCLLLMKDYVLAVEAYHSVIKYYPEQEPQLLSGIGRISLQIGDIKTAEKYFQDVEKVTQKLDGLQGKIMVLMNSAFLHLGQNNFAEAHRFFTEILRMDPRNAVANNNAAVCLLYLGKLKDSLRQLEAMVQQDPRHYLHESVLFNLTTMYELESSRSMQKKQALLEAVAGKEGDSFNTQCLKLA
UniProt Q13625: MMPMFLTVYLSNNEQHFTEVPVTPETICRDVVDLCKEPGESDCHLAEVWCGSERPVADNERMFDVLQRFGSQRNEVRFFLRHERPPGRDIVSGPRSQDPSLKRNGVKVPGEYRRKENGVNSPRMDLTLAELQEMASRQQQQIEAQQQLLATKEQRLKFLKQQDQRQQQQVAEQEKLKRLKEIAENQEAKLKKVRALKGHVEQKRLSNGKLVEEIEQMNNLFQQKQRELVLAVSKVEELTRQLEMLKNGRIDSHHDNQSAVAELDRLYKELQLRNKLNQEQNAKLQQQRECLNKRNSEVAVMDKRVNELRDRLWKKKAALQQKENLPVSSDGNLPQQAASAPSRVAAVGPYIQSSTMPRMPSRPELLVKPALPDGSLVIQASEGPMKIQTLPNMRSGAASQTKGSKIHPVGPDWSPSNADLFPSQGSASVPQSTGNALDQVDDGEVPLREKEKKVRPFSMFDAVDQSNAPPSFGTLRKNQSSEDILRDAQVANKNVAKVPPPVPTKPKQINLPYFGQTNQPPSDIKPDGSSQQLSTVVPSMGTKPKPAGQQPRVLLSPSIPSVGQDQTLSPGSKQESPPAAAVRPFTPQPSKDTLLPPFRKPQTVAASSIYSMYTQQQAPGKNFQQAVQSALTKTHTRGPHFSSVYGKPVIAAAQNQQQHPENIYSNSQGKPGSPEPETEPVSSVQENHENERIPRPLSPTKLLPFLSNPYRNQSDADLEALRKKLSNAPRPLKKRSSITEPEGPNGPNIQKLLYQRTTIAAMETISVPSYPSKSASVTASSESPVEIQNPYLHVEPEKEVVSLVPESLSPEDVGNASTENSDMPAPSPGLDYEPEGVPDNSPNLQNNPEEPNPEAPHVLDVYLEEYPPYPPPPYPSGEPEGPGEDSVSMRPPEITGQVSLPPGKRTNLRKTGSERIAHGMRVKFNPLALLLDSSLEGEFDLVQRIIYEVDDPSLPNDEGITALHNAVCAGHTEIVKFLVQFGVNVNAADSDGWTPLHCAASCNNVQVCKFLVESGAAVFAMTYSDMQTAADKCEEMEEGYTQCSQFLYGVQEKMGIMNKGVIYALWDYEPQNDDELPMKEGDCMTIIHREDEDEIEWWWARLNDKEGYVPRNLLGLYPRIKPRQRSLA
UniProt Q5JTV8: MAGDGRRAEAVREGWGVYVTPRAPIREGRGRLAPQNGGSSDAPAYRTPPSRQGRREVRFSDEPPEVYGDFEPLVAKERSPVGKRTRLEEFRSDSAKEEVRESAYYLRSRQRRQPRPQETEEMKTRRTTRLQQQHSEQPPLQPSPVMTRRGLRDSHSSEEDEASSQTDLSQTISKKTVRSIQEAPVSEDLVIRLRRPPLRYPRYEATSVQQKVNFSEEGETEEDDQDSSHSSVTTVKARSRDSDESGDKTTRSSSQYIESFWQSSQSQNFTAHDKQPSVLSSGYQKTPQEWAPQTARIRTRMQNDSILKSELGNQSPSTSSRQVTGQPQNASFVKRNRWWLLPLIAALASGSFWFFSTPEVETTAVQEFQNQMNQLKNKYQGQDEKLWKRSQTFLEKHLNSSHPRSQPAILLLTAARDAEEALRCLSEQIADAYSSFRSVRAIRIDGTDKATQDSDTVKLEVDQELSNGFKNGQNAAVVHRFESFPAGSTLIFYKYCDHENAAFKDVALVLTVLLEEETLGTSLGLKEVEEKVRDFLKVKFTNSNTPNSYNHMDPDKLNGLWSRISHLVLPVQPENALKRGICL
UniProt O14656: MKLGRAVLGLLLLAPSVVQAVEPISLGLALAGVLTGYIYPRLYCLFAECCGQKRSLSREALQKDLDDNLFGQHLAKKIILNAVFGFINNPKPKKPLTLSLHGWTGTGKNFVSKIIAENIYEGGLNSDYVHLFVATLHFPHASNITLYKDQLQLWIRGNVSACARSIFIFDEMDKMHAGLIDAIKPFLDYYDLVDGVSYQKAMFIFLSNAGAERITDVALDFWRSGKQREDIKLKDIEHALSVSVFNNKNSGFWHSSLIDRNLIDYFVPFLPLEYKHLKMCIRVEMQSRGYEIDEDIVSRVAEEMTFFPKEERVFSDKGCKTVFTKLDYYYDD
UniProt P60174, whole entry, looked up: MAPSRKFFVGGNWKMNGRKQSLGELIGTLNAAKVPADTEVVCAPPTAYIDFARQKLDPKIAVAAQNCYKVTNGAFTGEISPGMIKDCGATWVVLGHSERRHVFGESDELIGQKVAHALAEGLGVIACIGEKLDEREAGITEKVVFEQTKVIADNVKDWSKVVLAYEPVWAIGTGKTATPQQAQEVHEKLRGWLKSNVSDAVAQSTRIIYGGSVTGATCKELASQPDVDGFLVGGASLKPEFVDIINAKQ

Compound: C/C(=N\NC(=O)C1=CC(=CC=C1)S(=O)(=O)N2CCOCC2)/C3=C(C=CC(=C3)Cl)O
Experiment: log2 fold change, soluble protein after heating vs DMSO (PISA); higher = thermal stabilisation; K562 cells, 10 uM, 30 min; active = over 0.2 and 3.5 SD of the protein, either way, in both replicates (recomputed)
Procedure, shortened: (§1)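 K562 cells at 2×10^6 cells/mL were treated for 30 min with 10 μM compound, and aliquots were heated for 3 min over 48°C-58°C before pooling. Extraction used PBS with 0.5% NP-40 at 4°C, and soluble protein was the supernatant after 21,000xg for 90 min, measured by TMTpro 16plex LC-MS/MS with channel sums equalised. Thermal stability values, relative to control samples and from duplicates, are log2 fold changes.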

log2 fold change, inactive:
TP53RK (UniProt Q96S44) 0.001
TOR4A (UniProt Q9NXH8) 0.016
TRIM56 (UniProt Q9BRZ2) -0.132
TRAPPC5 (UniProt Q8IUR0) 0.139
TPST2 (UniProt O60704) -0.025
TRMT13 (UniProt Q9NUP7) 0.071
TPP2 (UniProt P29144) -0.192
TNFRSF1B (UniProt P20333) 0.027
TSC22D4 (UniProt Q9Y3Q8) 0.024
TSC22D2 (UniProt O75157) 0
TSEN15 (UniProt Q8WW01) 0.082
TRMT6 (UniProt Q9UJA5) -0.134
TOMM22 (UniProt Q9NS69) 0.118
TRAPPC10 (UniProt P48553) 0.121
TRIM25 (UniProt Q14258) -0.019
TPM3 isoform 2 (UniProt P06753) -0.03
TRAPPC12 (UniProt Q8WVT3) 0.045
TRMU (UniProt O75648) 0.036
TP53BP2 isoform 3 (UniProt Q13625) 0.068
TRMT11 (UniProt Q7Z4G4) 0.07
TOR1AIP2 (UniProt Q8NFQ8) -0.021
TPM3 isoform 4 (UniProt P06753) -0.043
TRPV2 (UniProt Q9Y5S1) 0.059
TPM1 (UniProt H7BYY1) 0.148
TPCN1 isoform 3 (UniProt Q9ULQ1) -0.015
TOR2A (UniProt Q5JU69) -0.138
TRIP4 (UniProt Q15650) 0.076
TOR1AIP1 isoform 3 (UniProt Q5JTV8) 0.024
TOR1A (UniProt O14656) 0
TPI1 (UniProt P60174) -0.018
TRIR (UniProt Q9BQ61) -0.067
TOP2B (UniProt Q02880) -0.12

Compound: C1=CC(=C(C=C1Cl)C2=NC3=NC=CN=C3C(=N2)NC4=CC=NC=C4)F
Experiment: as above
Procedure, shortened: as §1

log2 fold change, inactive:
TP53RK (UniProt Q96S44) 0.01
TOR4A (UniProt Q9NXH8) -0.109
TRIM56 (UniProt Q9BRZ2) -0.263
TRAPPC5 (UniProt Q8IUR0) -0.023
TPST2 (UniProt O60704) 0.016
TRMT13 (UniProt Q9NUP7) 0.023
TPP2 (UniProt P29144) -0.318
TNFRSF1B (UniProt P20333) 0.021
TSC22D4 (UniProt Q9Y3Q8) 0.008
TSC22D2 (UniProt O75157) 0.036
TSEN15 (UniProt Q8WW01) 0.034
TRMT6 (UniProt Q9UJA5) -0.145
TOMM22 (UniProt Q9NS69) 0.133
TRAPPC10 (UniProt P48553) -0.06
TRIM25 (UniProt Q14258) -0.319
TPM3 isoform 2 (UniProt P06753) 0.048
TRAPPC12 (UniProt Q8WVT3) 0.004
TRMU (UniProt O75648) 0.041
TP53BP2 isoform 3 (UniProt Q13625) -0.017
TRMT11 (UniProt Q7Z4G4) 0.024
TOR1AIP2 (UniProt Q8NFQ8) -0.04
TPM3 isoform 4 (UniProt P06753) -0.011
TRPV2 (UniProt Q9Y5S1) 0.036
TPM1 (UniProt H7BYY1) 0.028
TPCN1 isoform 3 (UniProt Q9ULQ1) 0.184
TOR2A (UniProt Q5JU69) 0.017
TRIP4 (UniProt Q15650) -0.044
TOR1AIP1 isoform 3 (UniProt Q5JTV8) 0.038
TOR1A (UniProt O14656) 0.012
TPI1 (UniProt P60174) 0.058
TRIR (UniProt Q9BQ61) 0.043
TOP2B (UniProt Q02880) -0.659

Compound: C1=CC(=CC=C1C2=NC3=C(N2)C=C(C=C3)C(=O)N)OC4=CC=C(C=C4)Cl
Experiment: as above
Procedure, shortened: as §1

log2 fold change, inactive:
TP53RK (UniProt Q96S44) 0.018
TOR4A (UniProt Q9NXH8) -0.005
TRIM56 (UniProt Q9BRZ2) 0.077
TRAPPC5 (UniProt Q8IUR0) -0.011
TPST2 (UniProt O60704) 0.005
TRMT13 (UniProt Q9NUP7) 0.004
TPP2 (UniProt P29144) -0.03
TNFRSF1B (UniProt P20333) 0.035
TSC22D4 (UniProt Q9Y3Q8) -0.075
TSC22D2 (UniProt O75157) -0.038
TSEN15 (UniProt Q8WW01) 0.045
TRMT6 (UniProt Q9UJA5) 0.084
TOMM22 (UniProt Q9NS69) -0.027
TRAPPC10 (UniProt P48553) -0.028
TRIM25 (UniProt Q14258) -0.018
TPM3 isoform 2 (UniProt P06753) -0.013
TRAPPC12 (UniProt Q8WVT3) 0.003
TRMU (UniProt O75648) -0.021
TP53BP2 isoform 3 (UniProt Q13625) -0.04
TRMT11 (UniProt Q7Z4G4) 0.051
TOR1AIP2 (UniProt Q8NFQ8) -0.015
TPM3 isoform 4 (UniProt P06753) 0.066
TRPV2 (UniProt Q9Y5S1) -0.007
TPM1 (UniProt H7BYY1) 0.015
TPCN1 isoform 3 (UniProt Q9ULQ1) 0.012
TOR2A (UniProt Q5JU69) -0.03
TRIP4 (UniProt Q15650) -0.01
TOR1AIP1 isoform 3 (UniProt Q5JTV8) 0.001
TOR1A (UniProt O14656) 0.005
TPI1 (UniProt P60174) 0.032
TRIR (UniProt Q9BQ61) 0.012
TOP2B (UniProt Q02880) 0.214
